Laboratory results: the supplement of paper PMC10849652
The list shows a part of the results.

By UniProt entry, the sequences of proteins in these tests, tags left out. Where a name states a change or a piece, a line headed by the entry shows the natural chain unless it says otherwise.
UniProt Q9BSL1: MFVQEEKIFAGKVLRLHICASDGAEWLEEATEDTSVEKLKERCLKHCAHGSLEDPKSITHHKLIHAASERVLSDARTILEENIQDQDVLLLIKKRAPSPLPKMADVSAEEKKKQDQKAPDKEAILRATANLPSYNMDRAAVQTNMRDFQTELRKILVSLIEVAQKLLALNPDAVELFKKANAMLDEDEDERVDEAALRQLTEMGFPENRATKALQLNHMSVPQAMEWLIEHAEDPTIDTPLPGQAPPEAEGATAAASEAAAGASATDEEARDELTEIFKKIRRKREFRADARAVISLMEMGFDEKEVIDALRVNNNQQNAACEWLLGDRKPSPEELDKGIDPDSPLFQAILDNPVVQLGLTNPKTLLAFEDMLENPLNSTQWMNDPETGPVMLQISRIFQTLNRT
UniProt Q14157: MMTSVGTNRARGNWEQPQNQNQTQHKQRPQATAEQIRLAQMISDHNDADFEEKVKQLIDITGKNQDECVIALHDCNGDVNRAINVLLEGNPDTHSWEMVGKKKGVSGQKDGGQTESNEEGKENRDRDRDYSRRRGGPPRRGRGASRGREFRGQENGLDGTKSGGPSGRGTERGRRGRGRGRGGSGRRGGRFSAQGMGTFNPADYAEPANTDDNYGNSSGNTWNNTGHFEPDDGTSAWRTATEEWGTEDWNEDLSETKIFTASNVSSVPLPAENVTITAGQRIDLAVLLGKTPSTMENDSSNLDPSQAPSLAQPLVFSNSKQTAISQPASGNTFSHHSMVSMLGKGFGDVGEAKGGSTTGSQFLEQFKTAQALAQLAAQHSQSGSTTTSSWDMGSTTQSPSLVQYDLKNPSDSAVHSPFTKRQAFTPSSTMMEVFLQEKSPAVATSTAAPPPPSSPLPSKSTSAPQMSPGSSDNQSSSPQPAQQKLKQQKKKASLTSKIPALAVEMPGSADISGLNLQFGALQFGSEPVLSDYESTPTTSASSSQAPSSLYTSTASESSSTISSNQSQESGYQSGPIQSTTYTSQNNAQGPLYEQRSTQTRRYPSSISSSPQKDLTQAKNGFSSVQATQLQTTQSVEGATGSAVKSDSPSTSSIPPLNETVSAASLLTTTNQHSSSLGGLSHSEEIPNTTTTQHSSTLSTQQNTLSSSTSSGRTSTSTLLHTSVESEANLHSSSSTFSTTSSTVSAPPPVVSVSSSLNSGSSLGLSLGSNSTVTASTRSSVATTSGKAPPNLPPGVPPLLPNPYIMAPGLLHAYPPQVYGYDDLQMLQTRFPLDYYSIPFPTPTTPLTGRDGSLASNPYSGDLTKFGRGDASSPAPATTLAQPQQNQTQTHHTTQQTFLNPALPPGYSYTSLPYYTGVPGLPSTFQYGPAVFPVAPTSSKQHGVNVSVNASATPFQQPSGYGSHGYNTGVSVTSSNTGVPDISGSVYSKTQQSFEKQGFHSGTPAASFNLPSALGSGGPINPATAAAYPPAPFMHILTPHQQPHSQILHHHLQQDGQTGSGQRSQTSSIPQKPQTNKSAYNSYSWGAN
UniProt Q8NBS9: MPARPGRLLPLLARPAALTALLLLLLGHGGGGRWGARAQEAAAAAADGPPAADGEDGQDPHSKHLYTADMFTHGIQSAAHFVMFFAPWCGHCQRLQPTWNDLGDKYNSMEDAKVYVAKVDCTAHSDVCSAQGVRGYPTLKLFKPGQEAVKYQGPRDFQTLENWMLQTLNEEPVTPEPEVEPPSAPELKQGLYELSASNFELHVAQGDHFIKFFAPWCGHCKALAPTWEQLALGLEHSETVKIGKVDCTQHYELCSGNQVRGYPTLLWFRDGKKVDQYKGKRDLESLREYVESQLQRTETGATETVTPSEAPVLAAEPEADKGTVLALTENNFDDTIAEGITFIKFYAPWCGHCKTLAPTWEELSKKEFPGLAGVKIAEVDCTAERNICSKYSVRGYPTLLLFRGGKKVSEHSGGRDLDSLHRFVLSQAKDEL
UniProt Q13509, whole entry, looked up: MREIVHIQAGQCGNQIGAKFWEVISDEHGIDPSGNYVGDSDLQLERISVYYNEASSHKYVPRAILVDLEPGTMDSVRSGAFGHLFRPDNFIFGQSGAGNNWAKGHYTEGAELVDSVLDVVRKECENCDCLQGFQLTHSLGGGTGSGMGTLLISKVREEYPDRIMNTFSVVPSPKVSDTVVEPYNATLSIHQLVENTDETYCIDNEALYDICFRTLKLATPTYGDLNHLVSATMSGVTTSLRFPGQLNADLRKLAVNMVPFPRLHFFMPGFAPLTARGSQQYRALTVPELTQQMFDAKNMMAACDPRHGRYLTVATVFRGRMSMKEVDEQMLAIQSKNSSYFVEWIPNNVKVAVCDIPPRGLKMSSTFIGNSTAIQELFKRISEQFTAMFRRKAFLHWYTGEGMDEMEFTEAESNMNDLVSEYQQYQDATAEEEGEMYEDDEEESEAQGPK
UniProt Q9H3M7: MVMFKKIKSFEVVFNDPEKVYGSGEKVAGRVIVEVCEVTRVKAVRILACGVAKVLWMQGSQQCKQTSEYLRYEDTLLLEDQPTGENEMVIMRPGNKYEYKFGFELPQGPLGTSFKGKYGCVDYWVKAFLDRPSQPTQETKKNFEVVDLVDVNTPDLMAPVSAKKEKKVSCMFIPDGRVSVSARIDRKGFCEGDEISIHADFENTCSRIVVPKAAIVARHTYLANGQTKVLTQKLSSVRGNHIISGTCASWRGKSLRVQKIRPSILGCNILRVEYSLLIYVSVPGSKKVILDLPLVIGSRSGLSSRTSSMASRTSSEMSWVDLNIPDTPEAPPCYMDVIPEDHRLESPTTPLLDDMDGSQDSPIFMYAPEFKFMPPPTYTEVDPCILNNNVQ
UniProt Q7Z3V4: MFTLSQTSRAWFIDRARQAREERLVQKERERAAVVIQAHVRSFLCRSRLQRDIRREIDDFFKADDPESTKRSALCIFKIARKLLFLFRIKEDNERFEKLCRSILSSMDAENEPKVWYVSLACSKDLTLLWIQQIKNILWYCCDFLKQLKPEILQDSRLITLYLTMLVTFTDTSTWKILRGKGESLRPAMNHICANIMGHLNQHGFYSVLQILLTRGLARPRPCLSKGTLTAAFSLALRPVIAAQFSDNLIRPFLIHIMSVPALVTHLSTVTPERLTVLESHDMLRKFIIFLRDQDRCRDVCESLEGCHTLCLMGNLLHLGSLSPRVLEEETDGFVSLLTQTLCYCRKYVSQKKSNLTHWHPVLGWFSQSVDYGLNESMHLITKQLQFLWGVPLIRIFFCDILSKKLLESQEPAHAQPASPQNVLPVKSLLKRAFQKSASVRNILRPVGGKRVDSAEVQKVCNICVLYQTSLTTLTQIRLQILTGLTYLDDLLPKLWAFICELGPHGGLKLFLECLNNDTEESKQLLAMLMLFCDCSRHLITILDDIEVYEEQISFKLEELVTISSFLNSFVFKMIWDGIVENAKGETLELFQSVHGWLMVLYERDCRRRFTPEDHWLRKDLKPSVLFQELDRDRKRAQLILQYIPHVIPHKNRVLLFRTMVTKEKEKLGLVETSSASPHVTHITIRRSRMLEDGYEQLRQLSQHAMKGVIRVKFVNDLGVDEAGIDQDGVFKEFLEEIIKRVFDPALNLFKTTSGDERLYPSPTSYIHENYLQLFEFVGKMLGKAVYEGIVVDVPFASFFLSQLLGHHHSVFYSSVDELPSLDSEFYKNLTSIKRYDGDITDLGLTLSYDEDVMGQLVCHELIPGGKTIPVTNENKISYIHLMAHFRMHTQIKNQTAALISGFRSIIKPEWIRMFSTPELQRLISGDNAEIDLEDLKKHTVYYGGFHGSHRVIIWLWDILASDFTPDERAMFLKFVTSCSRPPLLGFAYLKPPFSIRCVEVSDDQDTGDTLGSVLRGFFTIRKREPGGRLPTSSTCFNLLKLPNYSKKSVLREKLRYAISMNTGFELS
UniProt Q5BVD1: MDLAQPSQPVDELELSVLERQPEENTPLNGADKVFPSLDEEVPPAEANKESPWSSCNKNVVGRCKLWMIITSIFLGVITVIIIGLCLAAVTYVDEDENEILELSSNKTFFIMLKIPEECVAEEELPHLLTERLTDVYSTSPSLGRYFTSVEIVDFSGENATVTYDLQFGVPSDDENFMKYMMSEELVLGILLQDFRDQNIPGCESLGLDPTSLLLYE
UniProt Q9UJT0: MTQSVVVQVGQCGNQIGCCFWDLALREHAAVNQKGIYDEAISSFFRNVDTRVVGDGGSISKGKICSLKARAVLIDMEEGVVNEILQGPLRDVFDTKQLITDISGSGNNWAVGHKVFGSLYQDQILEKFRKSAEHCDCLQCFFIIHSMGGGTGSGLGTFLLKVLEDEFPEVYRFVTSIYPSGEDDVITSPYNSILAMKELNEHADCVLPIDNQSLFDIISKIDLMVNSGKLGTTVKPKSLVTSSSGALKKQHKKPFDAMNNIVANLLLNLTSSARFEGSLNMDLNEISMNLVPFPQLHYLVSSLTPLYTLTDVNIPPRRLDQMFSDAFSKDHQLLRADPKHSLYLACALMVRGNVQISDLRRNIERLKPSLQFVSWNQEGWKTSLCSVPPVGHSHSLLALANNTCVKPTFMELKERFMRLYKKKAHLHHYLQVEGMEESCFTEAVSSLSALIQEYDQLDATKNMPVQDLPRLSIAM
UniProt P61077: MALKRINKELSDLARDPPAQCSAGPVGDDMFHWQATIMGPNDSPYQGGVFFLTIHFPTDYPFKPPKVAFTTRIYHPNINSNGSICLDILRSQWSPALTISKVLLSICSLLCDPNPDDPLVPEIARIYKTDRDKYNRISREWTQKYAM
UniProt Q13885, whole entry, looked up: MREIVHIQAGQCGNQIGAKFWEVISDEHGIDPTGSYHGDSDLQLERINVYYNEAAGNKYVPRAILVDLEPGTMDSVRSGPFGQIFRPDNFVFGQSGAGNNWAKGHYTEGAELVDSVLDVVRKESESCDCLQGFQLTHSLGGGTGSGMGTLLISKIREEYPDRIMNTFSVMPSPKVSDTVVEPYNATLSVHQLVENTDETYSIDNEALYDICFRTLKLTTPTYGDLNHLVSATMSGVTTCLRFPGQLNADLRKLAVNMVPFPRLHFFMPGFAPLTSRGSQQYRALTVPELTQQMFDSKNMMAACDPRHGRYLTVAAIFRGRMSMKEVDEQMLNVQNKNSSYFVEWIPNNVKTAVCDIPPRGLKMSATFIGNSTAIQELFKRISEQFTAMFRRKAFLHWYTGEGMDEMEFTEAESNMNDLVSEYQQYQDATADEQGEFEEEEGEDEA
UniProt Q96J42: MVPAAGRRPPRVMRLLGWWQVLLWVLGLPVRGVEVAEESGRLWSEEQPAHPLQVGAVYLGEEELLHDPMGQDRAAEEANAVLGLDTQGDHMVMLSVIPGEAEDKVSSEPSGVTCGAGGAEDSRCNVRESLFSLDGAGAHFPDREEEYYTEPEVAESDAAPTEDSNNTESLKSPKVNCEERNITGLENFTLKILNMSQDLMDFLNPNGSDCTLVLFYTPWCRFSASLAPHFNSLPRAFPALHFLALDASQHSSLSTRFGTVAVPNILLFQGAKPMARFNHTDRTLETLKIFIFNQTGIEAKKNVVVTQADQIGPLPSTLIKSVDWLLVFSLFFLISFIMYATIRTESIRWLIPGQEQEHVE
UniProt Q01081: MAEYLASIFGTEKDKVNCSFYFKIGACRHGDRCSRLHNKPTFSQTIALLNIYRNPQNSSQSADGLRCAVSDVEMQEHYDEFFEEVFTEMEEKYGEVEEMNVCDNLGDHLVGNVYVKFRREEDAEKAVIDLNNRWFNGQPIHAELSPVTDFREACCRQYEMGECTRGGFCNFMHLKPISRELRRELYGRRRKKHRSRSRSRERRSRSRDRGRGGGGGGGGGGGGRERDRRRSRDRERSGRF
UniProt Q9BTX7: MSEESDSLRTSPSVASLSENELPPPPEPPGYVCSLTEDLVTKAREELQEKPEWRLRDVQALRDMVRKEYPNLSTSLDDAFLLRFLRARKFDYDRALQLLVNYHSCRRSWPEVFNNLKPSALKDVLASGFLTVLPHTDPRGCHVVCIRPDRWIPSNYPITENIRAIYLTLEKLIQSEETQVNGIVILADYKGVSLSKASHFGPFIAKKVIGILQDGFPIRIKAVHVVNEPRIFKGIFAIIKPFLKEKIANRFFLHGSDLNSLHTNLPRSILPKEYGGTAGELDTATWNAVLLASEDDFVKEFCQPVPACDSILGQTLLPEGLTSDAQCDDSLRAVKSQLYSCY
UniProt P83876: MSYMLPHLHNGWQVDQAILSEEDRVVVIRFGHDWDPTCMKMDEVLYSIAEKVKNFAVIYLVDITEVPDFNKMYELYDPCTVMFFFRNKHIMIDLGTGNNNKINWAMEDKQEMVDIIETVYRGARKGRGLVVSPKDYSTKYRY
UniProt Q12792, whole entry, looked up: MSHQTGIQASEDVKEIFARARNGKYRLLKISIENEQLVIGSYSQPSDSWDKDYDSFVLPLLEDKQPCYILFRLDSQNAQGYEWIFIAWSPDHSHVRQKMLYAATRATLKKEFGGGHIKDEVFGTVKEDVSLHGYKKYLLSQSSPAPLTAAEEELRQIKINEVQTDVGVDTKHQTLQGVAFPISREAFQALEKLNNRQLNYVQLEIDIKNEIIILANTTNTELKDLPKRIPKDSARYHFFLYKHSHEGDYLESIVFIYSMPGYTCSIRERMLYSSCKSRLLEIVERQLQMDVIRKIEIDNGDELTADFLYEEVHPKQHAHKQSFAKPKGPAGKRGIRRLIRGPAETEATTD

Legend:
Assay in all cases: log2 fold change, soluble protein after heating vs DMSO (PISA); higher = thermal stabilisation; K562 cells, 10 uM, 30 min; active = over 0.2 and 3.5 SD of the protein, either way, in both replicates (recomputed)
[1] = compound: COC1=CC=C(C=C1)CN2C=CC3=C2C=C(C=C3)C(=O)NO
In short: (§1)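 Soluble protein was defined as the supernatant after 21,000xg for 90 min. It came from K562 cells at 2×10^6 cells/mL given 10 μM compound for 30 min, heated in aliquots for 3 min across 48°C-58°C, pooled, and extracted in PBS with 0.5% NP-40 at 4°C, and was quantified by TMTpro 16plex LC-MS/MS with equalised channel sums. Thermal stability against control samples, from duplicates, is reported as log2 fold change.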

[2] = compound: CON(C)C(=O)N1N=C(c2cc(F)ccc2F)S[C@@]1(CCCN)c1ccccc1 [filanesib]
In short: as §1

[3] = compound: CO[C@H]1C[C@@H]2CC[C@@H](C)[C@@](O)(O2)C(=O)C(=O)N2CCCC[C@H]2C(=O)O[C@H]([C@H](C)C[C@@H]2CC[C@H](n3cnnn3)[C@H](OC)C2)CC(=O)[C@H](C)/C=C(\C)[C@@H](O)[C@@H](OC)C(=O)[C@H](C)C[C@H](C)/C=C/C=C/C=C/1C [zotarolimus]
In short: as §1

[4] = compound: COc1cc(C(=O)O)ccc1NC(=O)[C@@H]1N[C@@H](CC(C)(C)C)[C@](C#N)(c2ccc(Cl)cc2F)[C@H]1c1cccc(Cl)c1F [idasanutlin]
In short: as §1

[5] = compound: COc1cc(Nc2ncc3c(n2)-c2ccc(Cl)cc2C(c2c(F)cccc2OC)=NC3)ccc1C(=O)O [alisertib]
In short: as §1

[6] = compound: COc1cc2nc(-c3cc(F)ccc3O)nc(N[C@@H]3CNC[C@H]3C(C)(C)O)c2cc1OC
In short: as §1

[7] = compound: COc1cccc2cc(-c3nc([C@H]4CC[C@H](C(=O)O)CC4)n4ncnc(N)c34)[nH]c12
In short: as §1

[8] = compound: CS(=O)(=O)CCNCc1ccc(-c2ccc3ncnc(Nc4ccc(OCc5cccc(F)c5)c(Cl)c4)c3c2)o1 [lapatinib]
In short: as §1

[9] = compound: CS(=O)(=O)N1CCN(Cc2cc3nc(-c4cccc5[nH]ncc45)nc(N4CCOCC4)c3s2)CC1 [pictilisib]
In short: as §1

[10] = compound: COc1cc2ncnc(Nc3ccc(F)c(Cl)c3)c2cc1OCCCN1CCOCC1 [gefitinib]
In short: as §1

Measured: log2 fold change

TXNDC11 (UniProt Q6PKC3)
inactive: [1] -0.086 | [2] 0.038 | [3] 0.018 | [4] 0.003 | [5] -0.012 | [6] -0.142 | [7] -0.079 | [8] 0.072 | [9] 0.04

UBAC1 (UniProt Q9BSL1)
inactive: [1] 0.004 | [2] -0.12 | [3] 0.08 | [4] -0.008 | [5] -0.072 | [6] -0.053 | [10] -0.002 | [7] -0.024 | [8] -0.011 | [9] 0.04

UBAP2L isoform 5 (UniProt Q14157)
inactive: [1] -0.026 | [2] -0.014 | [3] -0.03 | [4] -0.047 | [5] -0.034 | [6] 0 | [10] -0.019 | [7] 0.012 | [8] 0 | [9] -0.015

TXNDC5 (UniProt Q8NBS9)
inactive: [1] 0.007 | [2] -0.031 | [3] 0.021 | [4] 0.013 | [5] -0.039 | [6] -0.007 | [10] 0.011 | [7] -0.016 | [8] -0.027 | [9] -0.038

TUBB3 (UniProt Q13509)
inactive: [1] 0.106 | [2] -0.13 | [3] 0.024 | [4] 0.013 | [5] -0.089 | [6] -0.047 | [10] 0.021 | [7] 0.068 | [8] 0.03 | [9] -0.012

UAP1 (UniProt Q16222)
inactive: [1] -0.028 | [2] -0.088 | [3] 0.038 | [4] -0.056 | [5] -0.054 | [6] 0.061 | [10] -0.006 | [7] 0.027 | [8] -0.059 | [9] 0.059

TUBB6 (UniProt Q9BUF5)
inactive: [1] 0 | [2] 0.021 | [3] 0.005 | [4] -0.002 | [5] -0.067 | [6] -0.004 | [10] 0.007 | [7] 0.075 | [8] 0.006 | [9] 0.081

UBE2O (UniProt Q9C0C9)
inactive: [1] 0.146 | [2] -0.055 | [3] 0 | [4] -0.029 | [5] -0.102 | [6] 0.061 | [10] 0.021 | [7] -0.008 | [8] -0.023 | [9] 0.005

TXNDC16 (UniProt Q9P2K2)
inactive: [1] -0.104 | [2] -0.029 | [3] -0.015 | [4] 0.018 | [5] -0.115 | [6] 0.176 | [10] 0.084 | [7] -0.116 | [8] 0.055 | [9] 0.003

TXNIP (UniProt Q9H3M7)
inactive: [1] -0.013 | [2] -0.148 | [3] 0.172 | [4] 0.035 | [5] -0.198 | [6] -0.074 | [10] 0.002 | [7] -0.119 | [8] 0.228 | [9] 0.142

UBE3B (UniProt Q7Z3V4)
inactive: [1] 0.03 | [2] 0.058 | [3] 0.086 | [4] 0.065 | [6] 0.247 | [10] -0.037 | [8] 0.212

TUFM (UniProt P49411)
inactive: [1] -0.036 | [2] -0.116 | [3] 0.072 | [4] -0.16 | [5] -0.008 | [6] 0.026 | [10] 0.022 | [7] 0.046 | [8] -0.022 | [9] 0.018

TTC27 (UniProt Q6P3X3)
inactive: [1] -0.008 | [2] 0.164 | [3] 0.077 | [4] 0.049 | [5] -0.1 | [6] -0.015 | [10] 0.048 | [7] -0.212 | [8] 0.01 | [9] -0.045

TXLNG (UniProt Q9NUQ3)
inactive: [1] -0.005 | [2] -0.094 | [3] -0.021 | [4] -0.033 | [5] -0.024 | [6] 0.004 | [10] 0.029 | [7] 0.006 | [8] 0.009 | [9] -0.012

TTN isoform 12 (UniProt Q8WZ42)
inactive: [1] -0.34 | [2] 0.076 | [3] -0.149 | [4] 0.005 | [5] -0.153 | [6] 0.236 | [10] -0.021 | [7] -0.018 | [8] -0.247 | [9] 0.1

U2SURP (UniProt O15042)
inactive: [1] 0.157 | [2] 0.185 | [3] 0.092 | [4] 0.126 | [5] 0.096 | [6] -0.113 | [10] 0.048 | [7] -0.008 | [8] 0.068 | [9] 0.003

TTMP isoform 3 (UniProt Q5BVD1)
inactive: [1] 0.362 | [2] -0.272 | [3] 0.107 | [4] -0.166 | [5] 0.086 | [10] 0.073 | [7] -0.051 | [9] 0.234

TXN (UniProt P10599)
inactive: [1] -0.043 | [2] -0.007 | [3] -0.005 | [4] 0.044 | [5] -0.086 | [6] -0.003 | [10] 0.012 | [7] 0.025 | [8] 0.002 | [9] -0.091

TTC7B isoform 2 (UniProt Q86TV6)
inactive: [1] 0.178 | [2] 0.913 | [3] -0.005 | [4] 0.015 | [6] 0.01 | [10] 0.069 | [8] -0.093 | [9] 0.112

TSTA3 (UniProt Q13630)
inactive: [1] -0.011 | [2] -0.028 | [3] -0.004 | [4] -0.037 | [5] -0.015 | [6] -0.01 | [10] -0.002 | [7] 0.004 | [8] -0.029 | [9] 0.022

TUBE1 (UniProt Q9UJT0)
inactive: [1] -0.143 | [2] 0.069 | [3] -0.046 | [4] 0.03 | [5] -0.021 | [6] -0.003 | [10] 0.037 | [7] 0.055 | [8] 0.056 | [9] 0.045

UBE2D3 isoform 3 (UniProt P61077)
inactive: [1] 0.006 | [2] -0.068 | [3] 0.093 | [4] -0.14 | [5] -0.075 | [6] 0.03 | [10] -0.035 | [7] 0.034 | [8] -0.022 | [9] -0.079

TUBB2A (UniProt Q13885)
inactive: [1] 0.029 | [2] -0.043 | [3] 0.088 | [4] 0.001 | [5] -0.018 | [6] 0.002 | [10] -0.011 | [7] 0.016 | [8] 0.005 | [9] 0.015

UBA52 (UniProt P62987)
inactive: [1] 0 | [2] 0.519 | [3] -0.171 | [4] 0.308 | [5] -0.131 | [6] -0.203 | [7] -0.275 | [8] 0.141 | [9] -0.177

TXNDC15 (UniProt Q96J42)
inactive: [1] 0.111 | [2] -0.088 | [3] -0.193 | [4] 0.295 | [5] -0.02 | [6] -0.017 | [10] -0.024 | [7] 0.063 | [8] 0.019 | [9] -0.111

TTC33 (UniProt Q6PID6)
inactive: [1] 0.094 | [2] 0.031 | [3] -0.113 | [4] -0.039 | [5] 0.071 | [6] 0.082 | [7] 0.086 | [8] -0.15 | [9] -0.093

U2AF1 isoform 2 (UniProt Q01081)
inactive: [1] 0.165 | [2] 0.034 | [3] 0.043 | [4] 0.055 | [5] -0.019 | [6] 0.06 | [10] 0.036 | [7] 0.045 | [8] 0 | [9] 0.069

TTPAL (UniProt Q9BTX7)
inactive: [1] 0.019 | [2] 0.044 | [3] 0.095 | [4] -0.032 | [6] 0.058 | [10] -0.176 | [8] 0.035 | [9] 0.082

TXNL4A (UniProt P83876)
inactive: [1] -0.053 | [2] -0.09 | [3] -0.009 | [4] -0.015 | [5] -0.004 | [6] 0.051 | [10] 0.024 | [7] 0.038 | [8] 0.012 | [9] 0.053

TWF1 (UniProt Q12792)
inactive: [1] 0.143 | [2] -0.065 | [3] 0.061 | [4] -0.045 | [5] -0.014 | [6] -0.021 | [10] -0.022 | [7] 0.054 | [8] 0.023 | [9] 0.038
